Each structure is given as a SMILES string.

For this data set, the system named is P rats. Briefly: Water, total fluid and food consumption (selectivity for ethanol), P rats. Format: in vivo, rat. The settings on record: P>0.05; for food consumption / total fluid intake: both treatment phases, data not shown.

As for `Cc1nccn1CC1CCc2c(c3ccccc3n2C)C1=O` (stereo not shown) [Ondansetron, 9-methyl-3-[(2-methyl-1H-imidazol-1-yl)methyl]-1,2,3,9-tetrahydrocarbazol-4-one], under “acute or chronic phase (ondansetron alone: phase not stated, data not shown), rat line not stated”, the water consumption entry is reported as “No effects were observed”. For the same compound, for the setting “rat line not stated”, the food consumption result is recorded as “No effects were observed” and the total fluid intake entry is on record as “No effects were observed”.
`CC1(C)O[C@@H]2[C@@H](CO[C@@]3(COS(N)(=O)=O)OC(C)(C)O[C@@H]23)O1` [Topiramate, 2,3:4,5-Bis-O-(1-methylethylidene)-beta-D-fructopyranose sulfamate]: for the setting “P rats, acute testing period, topiramate 5 and 10 mg/kg, FIG. 6A”, the water consumption entry was “did not affect water consumption”. Also, under “rat line not stated”, the food consumption entry was “no significant effects” and the total fluid intake result is “no significant effects”. Further, the water consumption entry (chronic treatment phase, compared with baseline levels, rat line not stated) is listed as “Nor did it affect water consumption”.

(Values after patent publication US20100041689A1, “Combined Effects of Topiramate and Ondansetron on Alcohol Consumption” (UNIVERSITY OF VIRGINIA PATENT FOUNDATION, priority 2006, published 2010).)
